Consider four molecules from article PMC9426488.

Sequences of proteins named here, by UniProt entry; tags and fusion partners are left off. A change or cut given only in a name is not applied to a line headed by its entry.
UniProt S8GNR6: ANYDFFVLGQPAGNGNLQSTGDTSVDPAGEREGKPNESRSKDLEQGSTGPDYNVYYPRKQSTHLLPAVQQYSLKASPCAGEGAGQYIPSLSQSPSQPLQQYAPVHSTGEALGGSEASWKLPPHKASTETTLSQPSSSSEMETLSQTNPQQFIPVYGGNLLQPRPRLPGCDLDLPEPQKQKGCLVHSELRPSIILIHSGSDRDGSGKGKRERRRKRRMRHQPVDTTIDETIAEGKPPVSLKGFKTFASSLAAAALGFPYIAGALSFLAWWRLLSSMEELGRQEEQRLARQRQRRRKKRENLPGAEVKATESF
UniProt Q8NEZ2: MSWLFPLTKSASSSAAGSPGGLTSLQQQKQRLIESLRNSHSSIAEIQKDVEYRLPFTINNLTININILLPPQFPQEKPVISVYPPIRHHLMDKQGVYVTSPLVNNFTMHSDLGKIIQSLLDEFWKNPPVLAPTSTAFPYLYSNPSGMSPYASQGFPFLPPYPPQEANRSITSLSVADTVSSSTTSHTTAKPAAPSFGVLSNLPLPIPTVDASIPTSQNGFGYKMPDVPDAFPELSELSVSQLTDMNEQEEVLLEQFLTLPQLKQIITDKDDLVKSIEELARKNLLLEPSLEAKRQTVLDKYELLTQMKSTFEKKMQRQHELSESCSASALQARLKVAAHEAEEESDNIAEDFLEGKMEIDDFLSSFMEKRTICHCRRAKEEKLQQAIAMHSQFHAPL
UniProt Q8WUM4: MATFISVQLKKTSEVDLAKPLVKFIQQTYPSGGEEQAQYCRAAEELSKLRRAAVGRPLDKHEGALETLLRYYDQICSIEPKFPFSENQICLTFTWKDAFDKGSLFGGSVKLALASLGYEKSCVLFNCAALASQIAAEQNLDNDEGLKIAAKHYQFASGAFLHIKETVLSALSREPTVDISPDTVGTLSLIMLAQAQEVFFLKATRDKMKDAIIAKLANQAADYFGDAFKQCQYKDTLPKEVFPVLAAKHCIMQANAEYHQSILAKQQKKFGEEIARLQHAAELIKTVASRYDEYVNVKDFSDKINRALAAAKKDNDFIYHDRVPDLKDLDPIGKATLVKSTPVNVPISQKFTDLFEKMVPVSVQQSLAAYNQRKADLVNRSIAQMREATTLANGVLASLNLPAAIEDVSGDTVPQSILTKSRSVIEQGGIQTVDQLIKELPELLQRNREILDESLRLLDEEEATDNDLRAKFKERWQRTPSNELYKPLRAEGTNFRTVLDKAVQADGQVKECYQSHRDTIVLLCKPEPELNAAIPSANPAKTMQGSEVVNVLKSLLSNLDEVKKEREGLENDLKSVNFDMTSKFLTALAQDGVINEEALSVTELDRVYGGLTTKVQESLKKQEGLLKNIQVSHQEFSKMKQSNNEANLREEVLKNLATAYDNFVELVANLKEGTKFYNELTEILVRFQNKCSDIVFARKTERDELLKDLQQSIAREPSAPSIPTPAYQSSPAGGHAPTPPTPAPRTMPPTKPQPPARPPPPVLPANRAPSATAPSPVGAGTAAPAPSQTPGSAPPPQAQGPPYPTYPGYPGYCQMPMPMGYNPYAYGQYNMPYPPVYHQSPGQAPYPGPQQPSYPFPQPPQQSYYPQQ
UniProt Q99816: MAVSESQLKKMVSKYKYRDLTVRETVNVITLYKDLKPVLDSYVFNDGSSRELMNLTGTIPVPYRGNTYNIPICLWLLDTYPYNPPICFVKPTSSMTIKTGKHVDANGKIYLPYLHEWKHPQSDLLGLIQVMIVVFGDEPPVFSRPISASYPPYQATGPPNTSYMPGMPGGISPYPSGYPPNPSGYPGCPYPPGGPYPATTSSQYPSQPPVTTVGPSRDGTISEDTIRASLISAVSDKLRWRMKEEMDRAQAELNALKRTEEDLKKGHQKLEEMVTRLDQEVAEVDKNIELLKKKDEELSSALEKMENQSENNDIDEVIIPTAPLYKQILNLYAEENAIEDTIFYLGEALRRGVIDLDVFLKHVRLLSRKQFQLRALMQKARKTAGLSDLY

B1: UBAP1 (protein, UniProt Q9NZ09 1-502)
chain: MASKKLGADFHGTFSYLDDVPFKTGDKFKTPAKVGLPIGFSLPDCLQVVREVQYDFSLEKKTIEWAEEIKKIEEAEREAECKIAEAEAKVNSKSGPEGDSKMSFSKTHSTATMPPPINPILASLQHNSILTPTRVSSSATKQKVLSPPHIKADFNLADFECEEDPFDNLELKTIDEKEELRNILVGTTGPIMAQLLDNNLPRGGSGSVLQDEEVLASLERATLDFKPLHKPNGFITLPQLGNCEKMSLSSKVSLPPIPAVSNIKSLSFPKLDSDDSNQKTAKLASTFHSTSCLRNGTFQNSLKPSTQSSASELNGHHTLGLSALNLDSGTEMPALTSSQMPSLSVLSVCTEESSPPNTGPTVTPPNFSVSQVPNMPSCPQAYSELQMLSPSERQCVETVVNMGYSYECVLRAMKKKGENIEQILDYLFAHGQLCEKGFDPLLVEEALEMHQCSEEKMMEFLQLMSKFKEMGFELKDIKEVLLLHNNDQDNALEDLMARAGAS

No constants are given. Whether binding was seen depends on the method and setting. In cells and extracts the contact can be indirect. Here binding means that the protein was enriched with, or labelled near, the bait; the list need not be complete.

The target of the test is TurboID-GRA64 fusion protein (3×HA-TurboID on the N terminus of endogenous GRA64) (Toxoplasma gondii) (UniProt S8GNR6). As to the kind of experiment: proximity labelling; TurboID-GRA64 parasites in human foreskin fibroblasts, bradyzoite growth conditions, 150 μM biotin for 3 days; RIPA lysate, streptavidin agarose, LC-MS/MS; untagged PruQ as control.
For VPS37A (from UniProt Q8NEZ2 1-397), the binding result is “binds”. Take ALIX (from UniProt Q8WUM4 1-868): the binding entry was “binds”. As for TSG101 (from UniProt Q99816 1-390), the entry is “binds”; as for B1, “binds”.
